In PubChem BioAssay (NCATS):
This list holds what a sample rich in hits left over. Records with an inconclusive call do not appear. Calls of active or inactive are those of the source. Unless noted, the call rests on the fitted dose curve; in most records, active means well fitted curve in the direction sought with a large enough effect; inconclusive means small, poorly fitted or top-dose-only effect, or another doubt; inactive means no such curve, though single readings can be large; an effect the other way counts as inactive or inconclusive.

Legend:
[1] = molecular target: Mitogen-activated protein kinase 10 (Mus musculus) (UniProt Q61831); assay: JNK3 AlphaScreen Assay (AID 530; active means well fitted curve in either direction with a large enough effect, not every such curve was filed as active;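 further: kinase came from lysate of stimulated human HepG2 cells; signal reports phosphorylation of biotinylated GST-cJun 1-79 at Ser73 with 10 µM ATP; on the % scale 0 is the no-effect control and ±100 the full control effect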); conditions: JNK3 lysate, c-Jun phosphorylation; at 11.4 µM (top of the series) unless noted
In short: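 Pre-activated (IL-1β/TNFα) JNK3 in HepG2 lysates phosphorylates biotin-GST-cJun(1-79), 10 uM ATP; anti-phospho-cJun(Ser73) AlphaScreen read at room temperature, pH 7.6 Tris buffer. Compounds pre-incubated 15 min as titrations.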

[2] = Cell Viability - N2a (AID 540); conditions: N2a mouse neuroblastoma cell viability; at 92.2 µM (top of the series);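 further: plate controls were DMSO alone for no effect and tamoxifen control for full effect; nearly all actives have a fitted effect of over 45% in size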
In short: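 Mouse neuroblastoma N2a cells, 1500/well, exposed to compounds 40 h at 37 °C in complete medium. Viability measured as cellular ATP by CellTiter-Glo luminescence; AC50 from Hill fits of concentration-response.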

[3] = Cell Viability - NIH 3T3 (AID 541); conditions: NIH 3T3 cell viability, qHTS; at 92.2 µM (top of the series);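 further: plate controls were DMSO alone for no effect and tamoxifen positive control for full effect; nearly all actives have a fitted effect of over 25% in size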
In short: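 Mouse NIH 3T3 fibroblasts, 1000 cells/well, rested 5 hr at 37 °C, then exposed to compound for 40 hr at 37 °C in complete medium. Viability read as intracellular ATP by CellTiter-Glo luminescence; AC50 from Hill-equation fits of concentration-response data.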

[4] = Cell Viability - HUV-EC-C (AID 542); conditions: HUV-EC-C endothelial cell viability, qHTS; at 92.2 µM (top of the series); further: on the % scale 0 is the no-effect control and ±100 the full control effect; nearly all actives have a fitted effect of over 35% in size
In short: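 HUV-EC-C human vascular endothelial cells, 1000/well, exposed to compound for 40 hr at 37 °C in complete medium. Intracellular ATP was read by CellTiter-Glo luminescence. AC50 came from Hill-equation fits of concentration-response data.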

[5] = Cell Viability - H-4-II-E (AID 543); conditions: H-4-II-E rat hepatoma viability; at 92.2 µM (top of the series); further: on the % scale 0 is the no-effect control and ±100 the full control effect; nearly all actives have a fitted effect of over 35% in size
In short: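 Rat hepatoma H-4-II-E cells, 1500 per well, treated 40 h at 37 °C in complete medium. Cellular ATP read by CellTiter-Glo luminescence; AC50 from Hill fits of concentration-response.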

[6] = Cell Viability - SH-SY5Y (AID 544); conditions: SH-SY5Y neuroblastoma cell viability; at 92.2 µM (top of the series);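 further: 0% = DMSO alone and -100% = 100 µM tamoxifen; nearly all actives have a fitted effect of over 55% in size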
In short: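 SH-SY5Y human neuroblastoma cells (1500/well) incubated 5 h, then compound-treated 40 h at 37 °C in complete medium. Viability read as intracellular ATP by CellTiter-Glo luminescence after 20 min; AC50 from Hill-equation fits of qHTS concentration-response.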

[7] = Cell Viability - Renal Proximal Tubule (AID 545); conditions: renal proximal tubule cells viability, primary cells of rat origin; at 91.7 µM (top of the series);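 further: 0% = DMSO only and -100% = 100 µM tamoxifen; nearly all actives have a fitted effect of over 40% in size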
In short: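 Luminescent ATP signal (CellTiter-Glo) served as the viability read-out after 40 hr compound exposure of freshly isolated rat proximal tubule cells at 37 °C. Concentration-dependent ATP loss was fitted with the Hill equation to give AC50.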

[8] = Cell Viability - Mesenchymal (AID 546); conditions: mesenchymal cells viability, qHTS; at 91.7 µM (top of the series);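 further: cells exposed to compound for 40 hours before reading; 0% = DMSO only and -100% = 100 µM tamoxifen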
In short: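 Human kidney mesenchymal cells from normal renal glomeruli, 1000 cells/well, rested 5 hr at 37 °C, then treated 40 hr at 37 °C in complete medium. Cellular ATP read by CellTiter-Glo luminescence; AC50 from Hill-equation fits.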

[9] = Cell Viability - LYMP2-001 (AID 921); conditions: LYMP2-001 lymphoblastoid cell viability; at 92.2 µM (top of the series);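 further: 0% = DMSO only and full inhibition = tetraoctylammonium bromide control wells; nearly all actives have a fitted effect of over 70% in size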
In short: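 Steps: seed 2500 lymphoblastoid cells/well; 5 hr, 37 C; add compound; 24 hr, 37 C; CellTiter-Glo reagent, 30 min room temperature; read luminescence. Concentration-response modeled by Hill equation for AC50.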

[10] = Cell Viability - LYMP1-002 - Assay at 16 hr (AID 948); conditions: LYMP1-002 lymphoblastoid cell viability; at 92.2 µM (top of the series);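 further: 0% = DMSO alone and full effect = 92 µM tetraoctylammonium bromide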
In short: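 Seed 2500 LYMP1-002 cells per well in complete medium and hold 5 hr at 37 C. Add compound across a concentration series and incubate 16 hr at 37 C. Add CellTiter-Glo, wait 30 min at room temperature, read luminescence.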

[11] = Cell Viability - LYMP1-003 - Assay at 24 hr (AID 963); conditions: LYMP1-003 lymphoblastoid cell viability; at 92.2 µM (top of the series);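 further: plate controls were DMSO only for no effect and tetraoctylammonium bromide positive control for full effect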
In short: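 Human lymphoblastoid LYMP1-003 cells, 2500/well, treated 24 h at 37 C in complete medium. Viability read as intracellular ATP by CellTiter-Glo luminescence after 30 min at room temperature; AC50 from Hill-equation fits of qHTS concentration-response.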

[12] = Cell Viability - LYMP1-003 - Assay at 40 hr (AID 964); conditions: LYMP1-003 lymphoblastoid viability; at 92.2 µM (top of the series); further: on the % scale 0 is the no-effect control and ±100 the full control effect; nearly all actives have a fitted effect of over 60% in size
In short: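 LYMP1-003 human lymphoblastoid cells, 2500/well, preincubated 5 h at 37 C, then treated with compound for 40 h at 37 C. Intracellular ATP read by CellTiter-Glo luminescence after 30 min at room temperature; AC50 from Hill-equation fits.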

[13] = Cell Viability - LYMP2-003 (AID 965); conditions: LYMP2-003 lymphoblastoid cell viability; at 92.2 µM (top of the series);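 further: cells exposed to compounds for 24 h before reading; 0% = DMSO only and full effect = 92 µM tetraoctylammonium bromide; nearly all actives have a fitted effect of over 50% in size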
In short: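 Seed 2500 lymphoblastoid cells/well; incubate 5 hr, 37 C; add compounds; incubate 24 hr, 37 C; add CellTiter-Glo, 30 min RT; read luminescence. AC50 from Hill fit.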

[14] = Cell Viability - LYMP2-004 (AID 966); conditions: LYMP2-004 lymphoblastoid cell viability, qHTS; at 92.2 µM (top of the series);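 further: plate controls were DMSO only for no effect and tetraoctylammonium bromide control for full effect; nearly all actives have a fitted effect of over 65% in size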
In short: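 Lymphoblastoid LYMP2-004 cells, 2500 per well, were preincubated for 5 hr and then treated with compound for 24 h at 37 C in complete medium. Viability was read as cellular ATP by CellTiter-Glo luminescence, and AC50 values were taken from Hill fits to concentration-response data.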

[15] = Cell Viability - LYMP2-011 (AID 969); conditions: LYMP2-011 lymphoblastoid cells viability; at 92.2 µM (top of the series);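 further: cells exposed to compound for 24 hours; 0% = DMSO only and full inhibition = 92 µM tetraoctylammonium bromide; nearly all actives have a fitted effect of over 60% in size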
In short: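 2500 cells/well in complete medium, compound-treated 24 h at 37 C. Viability read as intracellular ATP by CellTiter-Glo luminescence after 30 min at room temperature. AC50 from Hill fits of qHTS concentration-response data.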

[16] = Cell Viability - LYMP2-013 (AID 970); conditions: LYMP2-013 lymphoblastoid cells viability; at 92.2 µM (top of the series);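 further: 0% = DMSO only and full inhibition = tetraoctylammonium bromide control; nearly all actives have a fitted effect of over 55% in size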
In short: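 Human lymphoblastoid LYMP2-013 cells, 2500/well, treated 24 h at 37 C in complete medium; viability as intracellular ATP by CellTiter-Glo luminescence after 30 min. AC50 from Hill fits of qHTS concentration-response.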

Nc1ccc(N)c([N+](=O)[O-])c1
inactive: activity change, negative = inhibition [1] 7.81% [at 57.1 µM] | activity change, negative = cytotoxicity [2] -1.03% | activity change, negative = cytotoxicity [3] -19.3% | activity change, negative = cytotoxicity [4] -8.43% | activity change, negative = cytotoxic [5] -13.9% | viability change, negative = cytotoxic [6] -20.6% | activity change, negative = cytotoxicity [7] 6.36% | activity change, negative = cytotoxicity [8] -4.47% | activity change, negative = cytotoxic [9] -24.9% | activity change, negative = cytotoxicity [10] -8.91% | viability change, negative = cytotoxic [11] -9.25% | activity change, negative = cytotoxic [12] -20.7% | activity change, negative = cytotoxicity [13] -4.28% | activity change, negative = cytotoxicity [14] -3.56% | viability change, negative = cytotoxic [15] -0.621% | activity change, negative = cytotoxic [16] -8.25%
